{"source": "PubChem BioAssay AID1347423", "about": "(Functional Genomics Laboratory (NCATS/FGL), 2020)", "note": "The campaign covered roughly 52,000 sequences. About 210 (0.4%) were called active.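 The calls were made as follows: active = gene whose silencing raises cell survival under the drug, median off-target-corrected z-score across its silencing RNAs 2 or more; inactive = the rest.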 The list shows a part of the results."}
{"test": "Resistance to Poly (ADP-Ribose) Polymerase inhibitor: Gene Identification via Genome-wide siRNA Screen", "settings": "mouse BRCA2 R2336H ES cells, olaparib, CellTiter-Glo viability; hits give high values", "method_in_brief": "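Mouse BRCA2 R2336H ES cells were reverse-transfected with siRNA (20 nM final), treated at 48 h with 500 nM olaparib, and read by CellTiter-Glo after 72 h. Scores: MAD-based z per siRNA, median per gene, seed off-target correction.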"}
{"sequence": "GGCUGUGGACUUUUGUAAUTT against 3110002H16Rik", "z-score": "inactive: 0.704"}
{"sequence": "GGUCAUAUGGAGAACGAACTT against Snn", "z-score": "inactive: -0.352"}
{"sequence": "GGAUAAGAUGGAAAUCCGUTT against Xpo6", "z-score": "inactive: 1.63"}
{"sequence": "GGAUUUCAAACACGUCUUUTT against Accn5", "z-score": "inactive: -0.766"}
{"sequence": "GGGUAUGAUAUGUUAAUGATT against 2410091C18Rik", "z-score": "inactive: 0.392"}
{"sequence": "GGGAGCAGAAGCGAAAAGATT against Espn", "z-score": "inactive: -0.0669"}
{"sequence": "CCUUUGAAAAGUUACCUCCTT against Klk16", "z-score": "inactive: 0.0625"}
{"sequence": "GGCUAUGGUGAAAUAAACGTT against 1110001M19Rik", "z-score": "inactive: 1.29"}
{"sequence": "CGACGUAGAAACAGUGCAGTT against C730048E16Rik", "z-score": "inactive: -0.128"}
{"sequence": "GGAAAUACAGAGGGCGAAATT against Espn", "z-score": "inactive: 1.25"}
{"sequence": "GCAGUUACUUAUCAUCUGGTT against AI842396", "z-score": "inactive: 0.205"}
{"sequence": "GCAGAUGUCUCAUUUCCGUTT against Car2", "z-score": "inactive: 1.73"}
{"sequence": "CCUCCUGACCUUAAUCUUGTT against P2rx1", "z-score": "inactive: 0.352"}
{"sequence": "CGGGCACUAGAACAAGAACTT against Arvcf", "z-score": "inactive: 0.602"}
{"sequence": "GGCAGAGCCUAUGAUCUAUTT against Gprin1", "z-score": "inactive: 0.16"}
{"sequence": "CCAAUCCUCAACCUUGAAUTT against Ddx19", "z-score": "inactive: -1.07"}
{"sequence": "GGUUCUGAAAGAGUGUUAGTT against Htatsf1", "z-score": "inactive: -1.93"}
{"sequence": "GGGCAAAGUACUCUACACCTT against Fgd5", "z-score": "inactive: -0.175"}
{"sequence": "GGGCUCGACUCUUAAUUGUTT against Mapkapk5", "z-score": "inactive: 0.174"}
{"sequence": "GGUCCAGACAUUUGGAUACTT against Cav2", "z-score": "inactive: -1.21"}
{"sequence": "GCAUAUCCUCUUUCGAAGGTT against Adra2c", "z-score": "inactive: -0.0308"}
{"sequence": "GCAUUUGGAAACGAUCAAGTT against Chst4", "z-score": "inactive: -0.748"}
{"sequence": "GGGAGGUGGAAAGCUCUCUTT against Olfr1256", "z-score": "inactive: -0.191"}
{"sequence": "AUUGGUUUUCUGGUGUUAATT against Olfr553", "z-score": "inactive: -0.209"}
{"sequence": "GGUGUCCUUUCAAGUUGAUTT against C530005A01Rik", "z-score": "inactive: -0.63"}
{"sequence": "CCUUUCACAUUCAUGUGUATT against Rgs19", "z-score": "inactive: 0.852"}
{"sequence": "GGCUUUAAGAAUGUAUCGCTT against Dpp3", "z-score": "inactive: 2.55"}
{"sequence": "GGCUCUGAAUUAACUCCAGTT against Stk23", "z-score": "inactive: -0.367"}
{"sequence": "GCUACUUUGUCCCUCUUACTT against Olfr33", "z-score": "inactive: -0.926"}
{"sequence": "GGACUGAACAGUAUUAAGUTT against B230339H12Rik", "z-score": "inactive: 0.0968"}
{"sequence": "GGAUUACAGGAAGUUCUGGTT against AW049765", "z-score": "inactive: -0.628"}
{"sequence": "GGGAGCUUCUUUUUUCCAATT against Ctf1", "z-score": "inactive: 0.162"}
{"sequence": "CCUAUGCAUCCCUGACUACTT against 1110001A23Rik", "z-score": "inactive: 1.29"}
{"sequence": "GCCGCCCAGACAGAUAAACTT against Bag3", "z-score": "inactive: 1.89"}
{"sequence": "GGCAGGAAAGAAAAACGUATT against 4933402J07", "z-score": "inactive: 1.12"}
{"sequence": "GCUAAACCUACAAUUGAUUTT against BC018601", "z-score": "inactive: -0.462"}
{"sequence": "CCCGUAUUUGGUGGUCUGCTT against Hyal1", "z-score": "inactive: -0.539"}
{"sequence": "UCCACUUCACUAAUCCUGUTT against Gm1961", "z-score": "inactive: -0.559"}
{"sequence": "GCUCUUAAGGUCUUUUAAATT against Crkl", "z-score": "inactive: -0.205"}
{"sequence": "GGAGUCUUGUCAUCUCCAUTT against Nup35", "z-score": "inactive: 0.104"}
{"sequence": "GGUCACAGCCUACAAUCGATT against Sgca", "z-score": "inactive: 1.01"}
{"sequence": "GCUCGCCAGAAAAUUGACCTT against Pmm1", "z-score": "inactive: 2.15"}
{"sequence": "GGUCCUACAGGGAAUACCGTT against Habp4", "z-score": "inactive: 0.035"}
{"sequence": "GGGAGUAGACAGUUAGAAGTT against 2900092C05Rik", "z-score": "inactive: -0.834"}
{"sequence": "GCACUAAAGAAUCUUUACATT against BC023818", "z-score": "inactive: 0.0237"}
{"sequence": "GGAUUCUCCUUUACCUUUGTT against B930095G15Rik", "z-score": "inactive: -0.951"}
{"sequence": "CCAGAUUAAGUUUAUAGCCTT against Uros", "z-score": "inactive: 0.272"}
{"sequence": "GGUCAAAUAAAGCUGUGGUTT against Uba52", "z-score": "inactive: -2.42"}
{"sequence": "GCGGAAUCAUCAGAAACAATT against Acsl6", "z-score": "inactive: -0.249"}
{"sequence": "CGGUUCAACACAACAACACTT against C230078M14", "z-score": "inactive: -0.778"}
{"sequence": "GGUUGGAUUCUCUUUGUCATT against Rbm8", "z-score": "inactive: -3.53"}
{"sequence": "CCCUCUACAAUAUUCUCUATT against Olfr1118", "z-score": "inactive: -0.024"}
